# Assay results reported in the supplement of paper PMC8728848.
# The other results are listed elsewhere or left out.
# B1: PX14404-bvu-534-26-534 (Bacteroides vulgatus) (protein)
# chain: EDPRGKLTPENFFSTQDELNMSIYALYQKVNLSQVYTNMQLPQWQGDDITTNPGSNKQPAAEMDKFAAANNNKGVKDAWNMHYAIVKAANLIIQGASKTPTTQDEINIALGQAKFWRAYAYFTLVRLWGPLPMNLDNVNDDYTKPLSPVEEVYGHIVQDLTEAEAVLPTGYSGSPRFLNGVNVYVTRQAAKSTLAAVYMAMAGWPMNKTEYYAKAAEKAKEVIEGVNRGEYEYKLDKDYKDVYAMSNNYNNETVLGINYSPFVDWAQDSELTSCNQFESLGGWGDAWGEIRFWKEFPDGPRKDATYDPKIRLKDGTLVDWWELKEDGTPVVPEHHPMFSIFSVNWDPASKVNTSAPYDYTKPASQNMCNDHRHRIIRYSEVLLWYAEAKARTGQTDELAFKCLNDVRERAGLEPLTGLSADDLAEAAYKEHGWEVAGYWVALVTRRADQFRMNRLKDTFKERAENTAVEVADGILVKESVEYTNRTWSDNLMYLPYPDMDSQKNPNLVR
# Legend:
# Assay in all cases: glycan array binding signal (z-score within array); higher = stronger binding
# Conditions in all cases: glycan notation: IUPAC condensed, linker removed
# [1] = target: Gal(a1-3)[Gal(a1-4)]Gal(b1-4)GlcNAc
# Outline: (§1)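 Glycan array binding is given as a within-array Z-score, which can be read as non-binding when negative. The arrays, 3228 of them, came from the Consortium for Functional Glycomics database and were retained only where the protein sequence was available. Z-scores were averaged across arrays of the same protein sequence at different concentrations or buffers and across linkers.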
# [2] = target: Gal(a1-4)Gal(b1-3)GlcNAc(b1-2)Man(a1-3)[Gal(a1-4)Gal(b1-3)GlcNAc(b1-2)Man(a1-6)]Man(b1-4)GlcNAc(b1-4)GlcNAc
# Outline: as §1
# Gal(a1-4)Gal(b1-4)Glc = target: Gal(a1-4)Gal(b1-4)Glc
# Outline: as §1
# Gal(a1-4)Gal(b1-4)GlcNAc = target: Gal(a1-4)Gal(b1-4)GlcNAc
# Outline: as §1
# [3] = target: Gal(a1-4)Gal(b1-4)GlcNAc(b1-2)Man(a1-3)[Gal(a1-4)Gal(b1-4)GlcNAc(b1-2)Man(a1-6)]Man(b1-4)GlcNAc(b1-4)GlcNAc
# Outline: as §1
# [4] = target: Gal(a1-4)Gal(b1-4)GlcNAc(b1-3)Gal(b1-4)Glc
# Outline: as §1
# Gal(a1-4)GlcNAc = target: Gal(a1-4)GlcNAc
# Outline: as §1
# Gal(a1-6)Glc = target: Gal(a1-6)Glc
# Outline: as §1
# Gal(b1-2)Gal = target: Gal(b1-2)Gal
# Outline: as §1
# Gal(b1-3)Gal = target: Gal(b1-3)Gal
# Outline: as §1
# Gal(b1-3)Gal(b1-4)GlcNAc = target: Gal(b1-3)Gal(b1-4)GlcNAc
# Outline: as §1
# Gal(b1-3)GalNAc = target: Gal(b1-3)GalNAc
# Outline: as §1
# [5] = target: Gal(b1-3)GalNAc(a1-3)[Fuc(a1-2)]Gal(b1-4)Glc
# Outline: as §1
# [6] = target: Gal(b1-3)GalNAc(a1-3)[Fuc(a1-2)]Gal(b1-4)GlcNAc
# Outline: as §1
# Gal(b1-3)GalNAc(b1-3)Gal = target: Gal(b1-3)GalNAc(b1-3)Gal
# Outline: as §1
# [7] = target: Gal(b1-3)GalNAc(b1-3)Gal(a1-4)Gal(b1-4)Glc
# Outline: as §1
# [8] = target: Gal(b1-3)GalNAc(b1-4)Gal(b1-4)Glc
# Outline: as §1
# [9] = target: Gal(b1-3)GalNAc(b1-4)[Neu5Ac(a2-3)]Gal(b1-4)Glc
# Outline: as §1
# Gal(b1-3)GlcNAc = target: Gal(b1-3)GlcNAc
# Outline: as §1
# [10] = target: Gal(b1-3)GlcNAc(a1-3)Gal(b1-4)GlcNAc
# Outline: as §1
# [11] = target: Gal(b1-3)GlcNAc(a1-6)Gal(b1-4)GlcNAc
# Outline: as §1
# Gal(b1-3)GlcNAc(b1-2)Man = target: Gal(b1-3)GlcNAc(b1-2)Man
# Outline: as §1
# [12] = target: Gal(b1-3)GlcNAc(b1-2)Man(a1-3)[Gal(b1-3)GlcNAc(b1-2)Man(a1-6)]Man(b1-4)GlcNAc(b1-4)GlcNAc
# Outline: as §1
# [13] = target: Gal(b1-3)GlcNAc(b1-2)Man(a1-3)[Gal(b1-3)GlcNAc(b1-2)Man(a1-6)]Man(b1-4)GlcNAc(b1-4)[Fuc(a1-6)]GlcNAc
# Outline: as §1
# [14] = target: Gal(b1-3)GlcNAc(b1-2)Man(a1-3)[GlcNAc(b1-4)][Gal(b1-3)GlcNAc(b1-2)Man(a1-6)]Man(b1-4)GlcNAc(b1-4)GlcNAc
# Outline: as §1
# [15] = target: Gal(b1-3)GlcNAc(b1-2)[Gal(b1-3)GlcNAc(b1-6)]Man(a1-6)[Gal(b1-3)GlcNAc(b1-2)Man(a1-3)]Man(b1-4)GlcNAc(b1-4)GlcNAc
# Outline: as §1
# [16] = target: Gal(b1-3)GlcNAc(b1-3)Gal(b1-3)GlcNAc
# Outline: as §1
# [17] = target: Gal(b1-3)GlcNAc(b1-3)Gal(b1-4)Glc
# Outline: as §1
# [18] = target: Gal(b1-3)GlcNAc(b1-3)Gal(b1-4)GlcNAc
# Outline: as §1
# [19] = target: Gal(b1-3)GlcNAc(b1-3)Gal(b1-4)GlcNAc(b1-2)Man(a1-3)[Gal(b1-3)GlcNAc(b1-3)Gal(b1-4)GlcNAc(b1-2)Man(a1-6)]Man(b1-4)GlcNAc(b1-4)GlcNAc
# Outline: as §1
# [20] = target: Gal(b1-3)GlcNAc(b1-3)Gal(b1-4)GlcNAc(b1-2)[Gal(b1-3)GlcNAc(b1-3)Gal(b1-4)GlcNAc(b1-6)]Man(a1-6)[Gal(b1-3)GlcNAc(b1-3)Gal(b1-4)GlcNAc(b1-2)Man(a1-3)]Man(b1-4)GlcNAc(b1-4)[Fuc(a1-6)]GlcNAc
# Outline: as §1
# [21] = target: Gal(b1-3)GlcNAc(b1-3)Gal(b1-4)GlcNAc(b1-3)Gal(b1-4)GlcNAc(b1-2)[Gal(b1-3)GlcNAc(b1-3)Gal(b1-4)GlcNAc(b1-3)Gal(b1-4)GlcNAc(b1-6)]Man(a1-6)[Gal(b1-3)GlcNAc(b1-3)Gal(b1-4)GlcNAc(b1-3)Gal(b1-4)GlcNAc(b1-2)Man(a1-3)]Man(b1-4)GlcNAc(b1-4)[Fuc(a1-6)]GlcNAc
# Outline: as §1
# [22] = target: Gal(b1-3)GlcNAc(b1-3)Gal(b1-4)GlcNAc(b1-6)[Gal(b1-3)GlcNAc(b1-3)]Gal(b1-4)Glc
# Outline: as §1
# [23] = target: Gal(b1-3)GlcNAc(b1-3)Gal(b1-4)[Fuc(a1-3)]GlcNAc
# Outline: as §1
# [24] = target: Gal(b1-3)GlcNAc(b1-3)Gal(b1-4)[Fuc(a1-3)]GlcNAc(b1-6)[Gal(b1-3)GlcNAc(b1-3)]Gal(b1-4)Glc
# Outline: as §1
# [25] = target: Gal(b1-3)GlcNAc(b1-3)GalNAc
# Outline: as §1
# [26] = target: Gal(b1-3)GlcNAc(b1-6)Gal(b1-4)GlcNAc
# Outline: as §1
# [27] = target: Gal(b1-3)GlcNAc(b1-6)GalNAc
# Outline: as §1
binder,measurement,setting,value
B1,glycan array binding signal (z-score),[1],3.57
same,glycan array binding signal (z-score),[2],-1.1
same,glycan array binding signal (z-score),Gal(a1-4)Gal(b1-4)Glc,1.03
same,glycan array binding signal (z-score),Gal(a1-4)Gal(b1-4)GlcNAc,0.698
same,glycan array binding signal (z-score),[3],-0.464
same,glycan array binding signal (z-score),[4],-0.227
same,glycan array binding signal (z-score),Gal(a1-4)GlcNAc,1.74
same,glycan array binding signal (z-score),Gal(a1-6)Glc,0.273
same,glycan array binding signal (z-score),Gal(b1-2)Gal,-0.94
same,glycan array binding signal (z-score),Gal(b1-3)Gal,-0.984
same,glycan array binding signal (z-score),Gal(b1-3)Gal(b1-4)GlcNAc,0.873
same,glycan array binding signal (z-score),Gal(b1-3)GalNAc,-0.314
same,glycan array binding signal (z-score),[5],0.069
same,glycan array binding signal (z-score),[6],-0.591
same,glycan array binding signal (z-score),Gal(b1-3)GalNAc(b1-3)Gal,-0.619
same,glycan array binding signal (z-score),[7],-0.153
same,glycan array binding signal (z-score),[8],0.463
same,glycan array binding signal (z-score),[9],-0.231
same,glycan array binding signal (z-score),Gal(b1-3)GlcNAc,-0.144
same,glycan array binding signal (z-score),[10],-1.41
same,glycan array binding signal (z-score),[11],-0.215
same,glycan array binding signal (z-score),Gal(b1-3)GlcNAc(b1-2)Man,0.164
same,glycan array binding signal (z-score),[12],1.74
same,glycan array binding signal (z-score),[13],0.665
same,glycan array binding signal (z-score),[14],0.377
same,glycan array binding signal (z-score),[15],0.645
same,glycan array binding signal (z-score),[16],-0.525
same,glycan array binding signal (z-score),[17],-0.543
same,glycan array binding signal (z-score),[18],-1.42
same,glycan array binding signal (z-score),[19],-0.494
same,glycan array binding signal (z-score),[20],0.929
same,glycan array binding signal (z-score),[21],0.231
same,glycan array binding signal (z-score),[22],-0.123
same,glycan array binding signal (z-score),[23],-1.07
same,glycan array binding signal (z-score),[24],-0.291
same,glycan array binding signal (z-score),[25],-0.621
same,glycan array binding signal (z-score),[26],0.301
same,glycan array binding signal (z-score),[27],-1.35

# 7 consecutive entries from above, for reference:
binder,measurement,setting,value
B1,glycan array binding signal (z-score),[10],-1.41
same,glycan array binding signal (z-score),[11],-0.215
same,glycan array binding signal (z-score),Gal(b1-3)GlcNAc(b1-2)Man,0.164
same,glycan array binding signal (z-score),[12],1.74
same,glycan array binding signal (z-score),[13],0.665
same,glycan array binding signal (z-score),[14],0.377
same,glycan array binding signal (z-score),[15],0.645
